In patent US20050048634A1:
These are yes or no findings as the source states them, for the method shown. In cells and extracts the contact can be indirect. Some entries that bind do so weakly or less than the wild type. Where a sequence is shown, tags or fusion partners need not be part of it.

The chains behind the UniProt entries cited, without tags or fusion partners. Where a name states a change or a piece, a line headed by the entry shows the natural chain unless it says otherwise.
UniProt Q8TEK3: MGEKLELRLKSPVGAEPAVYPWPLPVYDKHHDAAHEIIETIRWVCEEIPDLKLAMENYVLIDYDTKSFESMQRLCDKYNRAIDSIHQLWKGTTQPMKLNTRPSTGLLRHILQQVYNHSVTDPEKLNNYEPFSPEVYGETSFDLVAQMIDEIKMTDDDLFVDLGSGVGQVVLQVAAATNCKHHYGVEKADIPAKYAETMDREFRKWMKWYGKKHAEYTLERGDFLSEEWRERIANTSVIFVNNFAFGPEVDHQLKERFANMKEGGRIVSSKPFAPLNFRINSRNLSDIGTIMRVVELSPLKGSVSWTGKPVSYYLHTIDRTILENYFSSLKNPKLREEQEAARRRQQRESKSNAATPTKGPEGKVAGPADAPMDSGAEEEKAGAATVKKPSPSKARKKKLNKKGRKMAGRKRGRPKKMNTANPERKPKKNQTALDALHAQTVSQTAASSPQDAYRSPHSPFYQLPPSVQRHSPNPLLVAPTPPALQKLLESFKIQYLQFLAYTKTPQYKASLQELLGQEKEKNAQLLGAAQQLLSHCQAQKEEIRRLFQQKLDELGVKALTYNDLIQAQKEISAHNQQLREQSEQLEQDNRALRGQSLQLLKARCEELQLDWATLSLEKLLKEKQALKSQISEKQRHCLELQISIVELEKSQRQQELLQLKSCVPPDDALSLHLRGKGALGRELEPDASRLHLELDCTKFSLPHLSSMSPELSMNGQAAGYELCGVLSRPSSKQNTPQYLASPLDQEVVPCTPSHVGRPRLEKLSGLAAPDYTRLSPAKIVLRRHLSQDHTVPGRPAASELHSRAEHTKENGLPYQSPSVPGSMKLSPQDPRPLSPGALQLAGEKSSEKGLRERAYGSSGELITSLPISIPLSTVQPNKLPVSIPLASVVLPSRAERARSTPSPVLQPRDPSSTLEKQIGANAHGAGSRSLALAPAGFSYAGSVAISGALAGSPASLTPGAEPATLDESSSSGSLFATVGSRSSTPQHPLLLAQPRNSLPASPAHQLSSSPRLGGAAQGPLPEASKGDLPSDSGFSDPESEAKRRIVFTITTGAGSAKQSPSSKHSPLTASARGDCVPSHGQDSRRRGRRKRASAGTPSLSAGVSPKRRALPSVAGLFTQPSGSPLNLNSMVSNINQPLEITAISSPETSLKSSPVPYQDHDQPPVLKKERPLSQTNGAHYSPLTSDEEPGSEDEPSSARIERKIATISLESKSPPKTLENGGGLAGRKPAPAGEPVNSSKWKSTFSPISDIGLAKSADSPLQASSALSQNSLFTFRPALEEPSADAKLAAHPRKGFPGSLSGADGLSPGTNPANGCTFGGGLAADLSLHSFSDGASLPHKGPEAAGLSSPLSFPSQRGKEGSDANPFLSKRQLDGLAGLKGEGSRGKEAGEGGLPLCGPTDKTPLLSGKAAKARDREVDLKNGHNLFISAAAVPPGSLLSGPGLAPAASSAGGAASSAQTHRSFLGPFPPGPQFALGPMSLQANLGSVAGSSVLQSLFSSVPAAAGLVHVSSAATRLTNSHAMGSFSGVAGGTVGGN

Target: hDOT1L-HA (human) (UniProt Q8TEK3)
Experiment: co-immunoprecipitation from 293T cells, anti-FLAG IP, anti-HA blot

B1: FLAG-tagged AF10 (protein, UniProt P55197 1-1068, looked up, not shown: small tags and cut ends)
chain: MVSSDRPVSLEDEVSHSMKEMIGGCCVCSDERGWAENPLVYCDGHGCSVAVHQACYGIVQVPTGPWFCRKCESQERAARVRCELCPHKDGALKRTDNGGWAHVVCALYIPEVQFANVSTMEPIVLQSVPHDRYNKTCYICDEQGRESKAATGACMTCNKHGCRQAFHVTCAQFAGLLCEEEGNGADNVQYCGYCKYHFSKLKKSKRGSNRSYDQSLSDSSSHSQDKHHEKEKKKYKEKDKHKQKHKKQPEPSPALVPSLTVTTEKTYTSTSNNSISGSLKRLEDTTARFTNANFQEVSAHTSSGKDVSETRGSEGKGKKSSAHSSGQRGRKPGGGRNPGTTVSAASPFPQGSFSGTPGSVKSSSGSSVQSPQDFLSFTDSDLRNDSYSHSQQSSATKDVHKGESGSQEGGVNSFSTLIGLPSTSAVTSQPKSFENSPGDLGNSSLPTAGYKRAQTSGIEEETVKEKKRKGNKQSKHGPGRPKGNKNQENVSHLSVSSASPTSSVASAAGSITSSSLQKSPTLLRNGSLQSLSVGSSPVGSEISMQYRHDGACPTTTFSELLNAIHNGIYNSNDVAVSFPNVVSGSGSSTPVSSSHLPQQSSGHLQQVGALSPSAVSSAAPAVATTQANTLSGSSLSQAPSHMYGNRSNSSMAALIAQSENNQTDQDLGDNSRNLVGRGSSPRGSLSPRSPVSSLQIRYDQPGNSSLENLPPVAASIEQLLERQWSEGQQFLLEQGTPSDILGMLKSLHQLQVENRRLEEQIKNLTAKKERLQLLNAQLSVPFPTITANPSPSHQIHTFSAQTAPTTDSLNSSKSPHIGNSFLPDNSLPVLNQDLTSSGQSTSSSSALSTPPPAGQSPAQQGSGVSGVQQVNGVTVGALASGMQPVTSTIPAVSAVGGIIGALPGNQLAINGIVGALNGVMQTPVTMSQNPTPLTHTTVPPNATHPMPATLTNSASGLGLLSDQQRQILIHQQQFQQLLNSQQLTPEQHQAFLYQLMQHHHQQHHQPELQQLQIPGPTQIPINNLLAGTQAPPLHTATTNPFLTIHGDNASQKVARLSDKTGPVAQEKS
- binding: binds
